# Assay results as given in PubChem BioAssay AID272 (DTP/NCI, 2004).
# The list shows only some results of the screen, not a fair sample: it gathers tests that were run many times, whatever their T/C, doses with no T/C, and many T/C values between a quarter and a half above the control. Other doses and runs of a compound stand elsewhere. T/C gives the treated animals as a percentage of the vehicle group. Some entries give survivors of the animals treated and no T/C: the source holds a T/C of zero for them, seemingly a mark for toxic or unscored doses. Some doses without a T/C left all or most animals alive at the check, yet need not have been tolerated: survival well below the control is almost never listed, so the zero probably covers shortened survival too. Survivors were counted at the toxicity check, usually on the fifth day, unless a day is given; later deaths do not show. Schedule codes are those of the source, read here as Q, the interval in days (D) or hours (H), X, the number of doses. Where survival is the endpoint, the PubChem record calls one and a half times the control and up active, and a quarter to a half above the control has no call in these data; cut-offs in other NCI protocols can differ.
# Tested on: Lewis lung carcinoma i.m., BDF1 mice, T/C %
# Assay: NCI In Vivo Anticancer Drug Screen. Data for tumor model Lewis Lung Carcinoma (intramuscular) in B6D2F1 (BDF1) mice
# Conditions: for T/C: dose: 16.0 mg/kg/injection
# In short: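 Transplantable tumour model; readout survival or tumour size; value = treated (T) / vehicle control (C).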
# [1] = T/C endpoint: median survival time, dose: 4.0 mg/kg/injection, schedule: Q01DX011 (ip), vehicle: saline, higher T/C = longer survival
# [2] = T/C endpoint: median survival time, dose: 12.5 mg/kg/injection, schedule: Q01DX011 (ip), vehicle: saline, higher T/C = longer survival
# [3] = T/C endpoint: median survival time, dose: 200.0 mg/kg/injection, schedule: Q01DX011 (ip), vehicle: saline, higher T/C = longer survival
compound,measurement,setting,value
CC(=O)OC1C(=O)C(O)C(C)OC1O[C@@H]1C[C@@]2(C)[C@@H]3CC=C4[C@@H](C[C@H](O)C(=O)C4(C)C)[C@]3(C)C(=O)C[C@]2(C)[C@H]1[C@@](C)(O)C(=O)/C=C/C(C)(C)O (some centres undefined),survivor count,"T/C endpoint: mean tumor weight, dose: 4.0 mg/kg/injection, schedule: Q01DX011 (ip), vehicle: saline, higher T/C = larger tumour",1 of 8
same,survivor count,[1],1 of 8
CC1=C2C(=C[C@@](C)(CO)[C@@H]2O)C(=O)[C@](C)(O)C12CC2,survivor count,"T/C endpoint: mean tumor weight, dose: 0.05 mg/kg/injection, schedule: Q01DX011 (ip), vehicle: other, higher T/C = larger tumour",1 of 8
CC(C)NCC(O)COc1cccc2ccccc12 (centres undefined),survivor count,"T/C endpoint: median survival time, dose: 4.0 mg/kg/injection, schedule: Q01DX009 (ip), vehicle: Klucel (hydroxypropylcellulose) (HPC), higher T/C = longer survival",10 of 10
FC(F)(F)c1ccc(-c2ccc(OCCN3CCCC3)cc2)cc1,survivor count,"T/C endpoint: mean tumor weight, dose: 12.5 mg/kg/injection, schedule: Q01DX011 (ip), vehicle: saline, higher T/C = larger tumour",5 of 8
same,survivor count,[2],5 of 8
CC1C=CC(C(N)C(=O)O)O1 (centres undefined),survivor count,"T/C endpoint: median survival time, dose: 100.0 mg/kg/injection, schedule: Q01DX011 (ip), vehicle: saline, higher T/C = longer survival",0 of 8
same,survivor count,[3],0 of 8
same,survivor count,"T/C endpoint: median survival time, dose: 400.0 mg/kg/injection, schedule: Q01DX011 (ip), vehicle: saline, higher T/C = longer survival",0 of 8
O=c1[nH]cc(N(CCCl)CCCl)c(=O)[nH]1,survivor count,"T/C endpoint: median survival time, dose: 1.0 mg/kg/injection, schedule: Q01DX011 (ip), vehicle: other, higher T/C = longer survival",5 of 8
same,survivor count,"T/C endpoint: median survival time, dose: 1.0 mg/kg/injection, schedule: Q01DX011 (ip), vehicle: saline, higher T/C = longer survival",6 of 8
same,survivor count,"T/C endpoint: median survival time, dose: 2.0 mg/kg/injection, schedule: Q01DX011 (ip), vehicle: saline, higher T/C = longer survival",1 of 8
same,survivor count,[1],0 of 8
COc1cc([C@@H]2c3cc4c(cc3[C@@H](OC3OC5CO[C@@H](c6cccs6)OC5C(O)C3O)[C@H]3COC(=O)[C@H]23)OCO4)cc(OC)c1O (some centres undefined),survivor count,[1],2 of 8
same,T/C,"T/C endpoint: median survival time, schedule: Q04DX003 (ip), vehicle: saline, evaluated on day 7, higher T/C = longer survival",135 % of control
same,T/C,"T/C endpoint: median survival time, schedule: Q04DX003 (ip), vehicle: saline, evaluated on day 49, higher T/C = longer survival",135 % of control
same,survivor count,"T/C endpoint: median survival time, dose: 32.0 mg/kg/injection, schedule: Q04DX003 (ip), vehicle: saline, higher T/C = longer survival",8 of 8
Cc1nc(N)sc1CCCl,survivor count,"T/C endpoint: mean tumor weight (est.), dose: 80.0 mg/kg/injection, schedule: Q01DX011 (ip), vehicle: saline, higher T/C = larger tumour",4 of 8
same,survivor count,"T/C endpoint: median survival time, dose: 80.0 mg/kg/injection, schedule: Q01DX011 (ip), vehicle: saline, higher T/C = longer survival",4 of 8
O=C(O)CCCC1CCCCC1.[Cu+2],survivor count,"T/C endpoint: mean tumor weight (est.), dose: 12.5 mg/kg/injection, schedule: Q01DX011 (ip), vehicle: saline with Tween-80, higher T/C = larger tumour",5 of 8
same,survivor count,"T/C endpoint: median survival time, dose: 6.25 mg/kg/injection, schedule: Q01DX011 (ip), vehicle: saline with Tween-80, higher T/C = longer survival",7 of 8
same,survivor count,"T/C endpoint: median survival time, dose: 12.5 mg/kg/injection, schedule: Q01DX011 (ip), vehicle: saline with Tween-80, higher T/C = longer survival",5 of 8
same,survivor count,"T/C endpoint: median survival time, dose: 25.0 mg/kg/injection, schedule: Q01DX011 (ip), vehicle: saline with Tween-80, higher T/C = longer survival",0 of 8
same,survivor count,"T/C endpoint: median survival time, dose: 50.0 mg/kg/injection, schedule: Q01DX011 (ip), vehicle: saline with Tween-80, higher T/C = longer survival",0 of 8
COc1ccc([I+]c2ccccc2)cc1,survivor count,"T/C endpoint: mean tumor weight, dose: 6.25 mg/kg/injection, schedule: Q01DX011 (ip), vehicle: saline, higher T/C = larger tumour",3 of 8
same,survivor count,"T/C endpoint: median survival time, dose: 6.25 mg/kg/injection, schedule: Q01DX011 (ip), vehicle: saline, higher T/C = longer survival",3 of 8
same,survivor count,[2],0 of 8
same,survivor count,"T/C endpoint: median survival time, dose: 25.0 mg/kg/injection, schedule: Q01DX011 (ip), vehicle: saline, higher T/C = longer survival",0 of 8
same,survivor count,"T/C endpoint: median survival time, dose: 50.0 mg/kg/injection, schedule: Q01DX011 (ip), vehicle: saline, higher T/C = longer survival",0 of 8
CS(=O)(=O)OCC(O)C(O)COS(C)(=O)=O (centres undefined),survivor count,[3],4 of 8
same,survivor count,"T/C endpoint: median survival time, dose: 800.0 mg/kg/injection, schedule: Q01DX011 (ip), vehicle: saline, higher T/C = longer survival",5 of 8
CC(=O)c1c(O)c(C)c(O)c2c1OC1=CC(=O)C(C(C)=O)C(=O)C12C (centres undefined),survivor count,"T/C endpoint: median survival time, dose: 118.0 mg/kg/injection, schedule: Q01DX011 (ip), vehicle: other, higher T/C = longer survival",8 of 8
same,survivor count,"T/C endpoint: median survival time, dose: 266.0 mg/kg/injection, schedule: Q01DX011 (ip), vehicle: other, higher T/C = longer survival",0 of 8
same,survivor count,"T/C endpoint: median survival time, dose: 400.0 mg/kg/injection, schedule: Q01DX011 (ip), vehicle: other, higher T/C = longer survival",0 of 8
